In paper PMC7227447:
Results are given in words; binding and its absence hold for the method and conditions named. In cells and extracts the contact can be indirect. Some binding calls cover weakened binding; strength is not graded here.

Sequences of proteins named here, by UniProt entry; tags and fusion partners are left off.
UniProt P23242: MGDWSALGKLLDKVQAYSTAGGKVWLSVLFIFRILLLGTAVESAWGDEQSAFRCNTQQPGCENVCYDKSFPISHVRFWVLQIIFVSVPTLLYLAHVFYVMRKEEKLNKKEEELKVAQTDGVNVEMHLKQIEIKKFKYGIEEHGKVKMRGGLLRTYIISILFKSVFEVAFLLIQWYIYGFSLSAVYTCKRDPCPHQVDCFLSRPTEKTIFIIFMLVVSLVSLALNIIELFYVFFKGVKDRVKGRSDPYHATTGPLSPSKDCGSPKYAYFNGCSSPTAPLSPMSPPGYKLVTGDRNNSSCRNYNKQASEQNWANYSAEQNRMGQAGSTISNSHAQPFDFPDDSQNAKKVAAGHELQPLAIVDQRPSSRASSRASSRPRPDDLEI

Biological target: T1, nuclear factor erythroid 2-related factor 2 (mouse (endogenous in primary astrocytes)) (UniProt Q60795)
T1 sequence: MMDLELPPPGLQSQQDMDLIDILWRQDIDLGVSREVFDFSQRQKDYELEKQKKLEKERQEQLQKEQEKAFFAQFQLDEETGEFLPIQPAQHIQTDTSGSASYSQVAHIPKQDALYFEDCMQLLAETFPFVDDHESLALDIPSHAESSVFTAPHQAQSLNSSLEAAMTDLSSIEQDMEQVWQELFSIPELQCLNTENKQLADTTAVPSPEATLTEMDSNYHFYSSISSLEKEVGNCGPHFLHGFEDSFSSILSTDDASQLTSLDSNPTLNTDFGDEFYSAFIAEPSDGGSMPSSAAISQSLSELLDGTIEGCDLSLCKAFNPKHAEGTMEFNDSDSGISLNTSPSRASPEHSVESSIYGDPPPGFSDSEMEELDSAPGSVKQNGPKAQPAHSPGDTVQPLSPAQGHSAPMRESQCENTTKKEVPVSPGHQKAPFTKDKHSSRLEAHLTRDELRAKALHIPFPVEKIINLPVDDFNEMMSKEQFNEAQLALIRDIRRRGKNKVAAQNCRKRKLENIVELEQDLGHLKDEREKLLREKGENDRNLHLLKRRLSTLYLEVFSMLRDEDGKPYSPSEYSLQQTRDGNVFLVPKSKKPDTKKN
Test: co-IP; lysates (1 mg protein) of primary mouse astrocytes treated according to experiment designs (30 uM hemin, with or without BM-MSCs coculture); precipitated with 1 ug rabbit anti-Nrf2 antibody or normal rabbit IgG for 12 h at 4 C, protein A/G agarose; Western blot with mouse anti-Cx43 monoclonal antibody

**Q.** connexin 43 (from UniProt P23242 1-382) was tested. Which binding did it give?
**A.** The binding was “binds”.
